The results in this text go back to PMC9708603.

The target in the assay is GST-14-3-3. Nature of the assay: affinity purification with mass spectrometry; KIOSS: glutathione Sepharose 4B beads coated with GST-14-3-3 (500 pmol), incubated with RIPA lysates of mouse striatal/accumbal slices for 60 min at 4 °C; slices treated with PEP-005 or carbachol, with or without GF109203X; bound proteins digested, phosphopeptides enriched on TiO2, LC-MS/MS; only the target purified.

Results are given in words; binding and its absence hold for the method and conditions named. Binding seen in cells or lysates may run through a third protein. These calls come from enrichment with a bait or labelling near it, and not all partners need be listed.

B1: Rims1 (protein, UniProt Q99NE5 1-1463)
chain: MSSAVGPRGPRPPTVPPPMQELPDLSHLTEEERNIIMAVMDRQKEEEEKEEAMLKCVVRDMAKPAACKTPRNAESQPHQPPLNIFRCVCVPRKPSSEEGGPDRNWRLHQQFESYKEQVRKIGEEARRYQGEHKDDAPTCGICHKTKFADGCGHLCSYCRTKFCARCGGRVSLRSNNEDKVVMWVCNLCRKQQEILTKSGAWFFGSGPQQPSQDGTLSDTATGAGSEVPREKKARLQERSRSQTPLSTAAVSSQDTASHGAPLDRNKGAEPSQQALGPEQKQASRSRSEPPRERKKAPGLSEQNGKGGQKSERKRVPKSVVQPGEGTADERERKERRETRRLEKGRSQDYPDRLEKREDGRVAEDEKQRKEEEGVSTPEYTSCEDVELESESVSEKGDLDYWLDPATWHSRETSPISSHPVTWQPSKEGDRLIGRVILNKRTTMPKESGALLGLKVVGGKMTDLGRLGAFITKVKKGSLADVVGHLRAGDEVLEWNGKPLPGATNEEVYNIILESKSEPQVEIIVSRPIGDIPRIPESSHPPLESSSSSFESQKMERPSISVISPTSPGALKDAPQVLPGQLSVKLWYDKVGHQLIVNVLQATDLPPRVDGRPRNPYVKMYFLPDRSDKSKRRTKTVKKLLEPKWNQTFVYSHVHRRDFRERMLEITVWDQPRVQDEESEFLGEILIELETALLDDEPHWYKLQTHDESSLPLPQPSPFMPRRHIHGESSSKKLQRSQRISDSDISDYEVDDGIGVVPPVGYRASARESKATTLTVPEQQRTTHHRSRSVSPHRGDDQGRPRSRLPNVPLQRSLDEIHPTRRSRSPTRHHDASRSLADHRSRHAESQYSSEPDSELLMLPRAKRGRSAECLHMTSELQPSLDRARSASTNCLRPDTSLHSPERERGRWSPSLARRRPASPRIQIQHASPENDRHSRKSERSSIQKQSRKGTASDADRVLPPCLSRRGYAIPRATDQPVIRGKHTTRSRSSEHSSIRTLCSMHHLAPGGSAPPSPLLTRTHRQGSPTQSPPADTSFGSRRGRQLPQVPVRSGSIEQASLVVEERTRQMKMKVHRFKQTTGSGSSQELDHEQYSKYNIHKDQYRSCDNASAKSSDSDVSDVSAISRASSTSRLSSTSFMSEQSERPRGRISSFTPKMQGRRMGTSGRAIIKSTSVSGEIYTLEHNDGSQSDTAVGTVGAGGKKRRSSLSAKVVAIVSRRSRSTSQLSQTESGHKKLKSTIQRSTETGMAAEMRKMVRQPSRESTDGSINSYSSEGNLIFPGVRVGPDSQFSDFLDGLGPAQLVGRQTLATPAMGDIQIGMEDKKGQLEVEVIRARSLTQKPGSKSTPAPYVKVYLLENGACIAKKKTRIARKTLDPLYQQSLVFDESPQGKVLQVIVWGDYGRMDHKCFMGVAQILLEELDLSSMVIGWYKLFPPSSLVDPTLTPLTRRASQSSLESSSGPPCIRS
modifications: phosphorylated; sites not given
B1: the binding result was “binds”.

B2: Dlgap2 (protein, UniProt Q8BJ42 1-1059)
chain: MGTAQVLPGILQKHCCILPDRNTESQCTLCGEPEEEEGGDLAQPGLSFPGPAEEDIDQQYSWSPTQHFNEERYSPAPRNMKGLTGSRNQPQLCAGHTCGLSPPDDCEHPHDHMHHGSDVRQPYLLSPAESCPMDHHRCSPRSSVHSECMMMPVMLGDHVSSSTFPRMHYSSHYDTRDDCAMSHTSTKVNRIPANLLDQFEKQLPLHRDGFHTLQYQRASAATEQRNESPGRIRHLVHSVQKLFTKSHSLEGSSKSNINGTKSDSRVDDHHQSHLSKHSKRSKSKERKPESKHKSGMSSWWSSDDNLDSDSTYRTPSVAHRHHMDHIPHCYPEALQSPFGDLSLKTSKSNNDVKCSACEGLALTPDTRYMKRSSWSTLTVSQAKEAYRKSSLNLDKPLVHPEIKPSLRPCHYLQVPQDDWGAYPTGGKEEEIPCRRMRSGSYIKAMGDEESGESDSSPKTSPTVAIRPEPLLKPIIQRPLGDHQTQSYLQAATEVPVGHSLNPSINYNSPKFRSRNQSYMRAVSTLSQASCVSQMSEAEVNGQFESVCESVFSEVESQAMDALDLPGCFRTRSHSYLRAIQAGYSQDDECIPVMTSSNMTSTIRSTAAVSYTNYKKTPPPVPPRTTSKPLISVTAQSSTESTQDAYQDSRAQRMSPWPQDSRGGLYNSMDSLDSNKAMNLALETAAAQRHAADTQSSSTRSIDKAVLASKAEELLKSRCSSIGVQDSEFPDHQPYPRSDVETATDSDTESRGLREYHSVGVQVEDEKRHGRFKRSNSVTAAVQADLELEGFPGHVSMEDKGLQFGSSFQRHSEPSTPTQYGALRTVRTQGLFSYREDYRTQVDTSTLPPPDPWLEPSLDTVETGRMSPCRRDGSWFLKLLHTETKRMEGWCKEMEREAEENDLLEDILGKIRSAVGSAQLLMSQKFQQFYWLCQQNMDPSAMPRPTSQDLAGYWDMLQLSVEDVSMKFDELHQLKLNDWKIIESPERKEERKIPPPIPKKPPKGKFPITREKSLDLPDRQRQEARRRLMAAKRAASFRQNSATERADSIEIYIPEAQTRL
modifications: phosphorylated; sites not given
With B2, the binding entry is “binds”.

B3: Dlgap3 (protein, UniProt Q6PFD5 1-977)
chain: MRGYHGDRGSHPRPARFADQQHMDVGPAARAPYLLGSREAFSTEPRFCAPRAGLGHLSPEGPLSLSEGPSSVGPEGGPGGVGAGGGSSTFPRMYPGQGPFDTCEDCVGHPQGKGATRLPPTLLDQFEKQLPVQQDGFHTLPYQRGPAGPGPGPGSGAAPEARSESPSRIRHLVHSVQKLFAKSHSLEAPGKRDYNGPKADGRGSSGGDSYSGPGSGGTPTSHHHHHHHHHHHHQSRHGKRSKSKDRKGDGRHQTKATGWWSSDDNLDSDSGFLGGRPPGEPGGPFCLDAPDGSYRDLSFKGRSGGSEGRCLACTGMSMSLDGQSVKRSAWHTMMVSQGRDGYPGAGPGKGLLGPETKAKARTYHYLQVPQDDWGGYPTGGKDGEIPCRRMRSGSYIKAMGDEESGDSDGSPKTSPKALARRFASRRSSSVDTARINCCVPPRIHPRSSIPGYSRSLTTGQLSEEFNQQLEAVCGSVFGELESQAVDALDLPGCFRMRSHSYLRAIQAGCSQDDDCLPLLAAPASVSGRPGSSFNFRKAPPPIPPGSQAPPRISITAQSSTDSAHESFTAAEGPARRCSSADGLDGPTMGARTLELAPVPPRASPKPPTLIIKTIPGREELRSLARQRKWRPSIGVQVETISDSDTENRSRREFHSIGVQVEEDKRRARFKRSNSVTAGVQADLELEGLAGLATVATEDKALQFGRSFQRHASEPQPGPRAPTYSVFRTVHTQGQWAYREGYPLPYEPPATDGSPGPTPVPAPGPGSGRRDSWMERGSRSLPDSGRTSPCPRDGEWFIKMLRAEVEKLEHWCQQMEREAEDYELPEEILEKIRSAVGSTQLLLSQKVQQFFRLCQQSLDPTAFPVPTFQDLAGFWDLLQLSIEDVTLKFLELQQLKANSWKLLEPKEEKKVPPPIPKKPSRGRGVPVKERSLDSVDRQRQEARKRLLAAKRAASFRHSSATESADSIEIYIPEAQTRL
modifications: phosphorylated; sites not given
On to B3, for which the binding entry is “binds”.

B4: Dlgap1 (protein, UniProt Q9D415 1-992)
chain: MKGLSGSRSHHHGITCEAACDSLSHHSDHKPYLLSPVDHHPADHPYYTQRNSFQAECVGPFSDPLASSTFPRRHYTSQQELKDESALVPRTLATKANRLPTNLLDQFERQLPLSRDGYHTLQYKRTAVEHRSDSPGRIRHLVHSVQKLFTKSHSLEGPSKGSVNGGKASPDESQTLRYGKRSKSKERRSESKARSNASNASPTSPSWWSSDDNLDGDMCLYHTPSGVMTMGRCPDRSASQYFMEAYNTISEQAVKASRSNNDIKCSTCANLPVTLDAPLLKKSAWSSTLTVSRAREVYQKASVNMDQAMVKSEACQQERSCQYLQVPQDEWSGYTPRGKDDEIPCRRMRSGSYIKAMGDEDSGDSDTSPKPSPKVAARRESYLKATQPSLTELTTLKISNEHSPKLQIRSHSYLRAVSEVSINRSLDSLDPAGLLTSPKFRSRNESYMRAMSTISQVSEMEVNGQFESVCESVFSELESQAVEALDLPLPGCFRMRSHSYVRAIEKGCSQDDECVSLRSSSPPRTTTTVRTIQSSTGVIKLSSAVEVSSCITTYKKTPPPVPPRTTTKPFISITAQSSTESAQDAYMDGQGQRGDMISQSGLSNSTESLDSMKALTAAIEAANAQIHGPASQHMGSNAAAVTTTTTIATVTTEDRKKDFKKNRCLSIGIQVDDAEEPEKMAESKTSNKFQSVGVQVEEEKCFRRFTRSNSVTTAVQADLDFHDNLENSLESIEDNSCPGPMARQFSRDASTSTVSIQGSGNHYHACAADDDFDTDFDPSILPPPDPWIDSITEDPLEAVQRSVCHRDGHWFLKLLQAERDRMEGWCKLMEREERENNLPEDILGKIRTAVGSAQLLMAQKFYQFRELCEENLNPNAHPRPTSQDLAGFWDMLQLSIENISMKFDELHQLKANNWKQMDPLDKKERRAPPPVPKKPAKGPAPLIRERSLESSQRQEARKRLMAAKRAASVRQNSATESAESIEIYIPEAQTRL
modifications: phosphorylated; sites not given
As for B4, the binding result was “binds”.

B5: phospho-β-PIX (T76) (protein, UniProt Q9ES28-8 1-705)
chain: MTDNTNSQLVVRAKFNFQQTNEDELSFSKGDVIHVTRVEEGGWWEGTHNGRTGWFPSNYVREIKPSEKPVSPKSGTLKSPPKGFDTTAINKSYYNVVLQNILETEHEYSKELQSVLSTYLRPLQTSDKLSSANTSYLMGNLEEISSFQQVLVQSLEECTKSPEAQQRVGGCFLSLMPQMRTLYLAYCANHPSAVSVLTEHSEDLGEFMETKGASSPGILVLTTGLSKPFMRLDKYPTLLKELERHMEDYHPDRQDIQKSMTAFKNLSAQCQEVRKRKELELQILTEPIRSWEGDDIKTLGSVTYMSQVTIQCAGSEEKNERYLLLFPNLLLMLSASPRMSGFIYQGKLPTTGMTITKLEDSENHRNAFEISGSMIERILVSCTSQQDLHEWVEHLQKQTKVTSVSNPTIKPHSVPSHTLPSHPLTPSSKHADSKPVALTPAYHTLPHPSHHGTPHTTISWGPLEPPKTPKPWSLSCLRPAPPLRPSAALCYKEDLSKSPKTMKKLLPKRKPERKPSDEEFAVRKSTAALEEDAQILKVIEAYCTSAKTRQTLNSTWQGTDLMHNHVLADDDQSSLDSLGRRSSLSRLEPSDLSEDSEYDSIWTAHSYRMGSASRSRKESAPQVLLPEEEKIIVEETKSNGQTVIEEKSLVDTVYALKDEVQELRQDNKKMKKSLEEEQRARKDLEKLVRKVLKNMNDPAWDETNL
modifications: phosphothreonine at T76
On to B5, for which the binding entry is “binds”.
